No constants are given. Whether binding was seen depends on the method and setting. In cells and extracts the contact can be indirect. Some binding calls cover weakened binding; strength is not graded here.

Amino acid sequences for entries named in this document (tags omitted).
UniProt P15884: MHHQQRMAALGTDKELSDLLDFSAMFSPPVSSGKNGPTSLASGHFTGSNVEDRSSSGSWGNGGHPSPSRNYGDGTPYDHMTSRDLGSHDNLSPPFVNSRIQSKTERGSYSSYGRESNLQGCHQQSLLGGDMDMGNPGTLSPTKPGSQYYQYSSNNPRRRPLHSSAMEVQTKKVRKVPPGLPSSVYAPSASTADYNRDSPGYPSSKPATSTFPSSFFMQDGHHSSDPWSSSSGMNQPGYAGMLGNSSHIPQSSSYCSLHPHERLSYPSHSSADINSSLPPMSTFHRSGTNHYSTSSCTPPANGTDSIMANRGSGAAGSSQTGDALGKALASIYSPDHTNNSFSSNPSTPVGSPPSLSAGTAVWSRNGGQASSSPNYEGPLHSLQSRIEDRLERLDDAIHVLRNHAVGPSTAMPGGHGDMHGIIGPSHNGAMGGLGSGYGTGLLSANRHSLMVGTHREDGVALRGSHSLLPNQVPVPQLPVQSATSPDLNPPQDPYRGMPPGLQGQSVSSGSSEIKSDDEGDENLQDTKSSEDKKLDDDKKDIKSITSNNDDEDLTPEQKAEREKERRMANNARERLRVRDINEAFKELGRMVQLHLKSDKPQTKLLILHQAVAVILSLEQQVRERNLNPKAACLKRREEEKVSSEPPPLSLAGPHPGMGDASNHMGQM

The target of test [1] is T1, Runt-related transcription factor 1 (Runx1t1) (human (endogenous in 253 J and J82)) (UniProt Q06455).
T1 sequence: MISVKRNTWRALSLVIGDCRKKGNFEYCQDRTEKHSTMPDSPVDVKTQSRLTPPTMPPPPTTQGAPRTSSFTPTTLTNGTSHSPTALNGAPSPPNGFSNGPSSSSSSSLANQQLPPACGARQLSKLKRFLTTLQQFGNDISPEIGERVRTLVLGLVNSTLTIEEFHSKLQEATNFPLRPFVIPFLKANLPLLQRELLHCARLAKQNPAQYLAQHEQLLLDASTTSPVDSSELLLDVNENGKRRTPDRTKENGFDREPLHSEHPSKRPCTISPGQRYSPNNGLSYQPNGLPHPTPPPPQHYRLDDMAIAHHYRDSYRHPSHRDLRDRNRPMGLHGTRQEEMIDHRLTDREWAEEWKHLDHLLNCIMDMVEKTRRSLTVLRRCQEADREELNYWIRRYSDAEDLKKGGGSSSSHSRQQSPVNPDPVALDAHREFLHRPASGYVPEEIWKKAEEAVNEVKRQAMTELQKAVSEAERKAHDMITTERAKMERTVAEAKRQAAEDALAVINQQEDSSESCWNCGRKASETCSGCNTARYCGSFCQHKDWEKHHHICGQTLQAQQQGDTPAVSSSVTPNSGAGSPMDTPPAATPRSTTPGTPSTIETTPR
Kind of test: co-IP; reciprocal immunoprecipitation; 3 ug antibody and protein A-agarose added to 253 J cell lysates, 12 h, 4 C; western blot.

Test [2] has as its target T1, Runt-related transcription factor 1 (Runx1t1) (human (endogenous in 253 J and J82)). Kind of test: proximity ligation; in situ PLA (Duolink, Rabbit PLUS and Mouse MINUS) on fixed 253 J cells with anti-Runx1t1 and anti-TCF4 antibodies; confocal microscopy.

Regarding “Transcription factor 4 (TCF4) (from UniProt P15884 1-667)”, the binding entry in test [1] and in test [2] was “binds” in each case.

(Values after publication PMC8178337.)
